Out of some 330,000 compounds screened, about 7,700 (2.3%) were called active. Inconclusive results, whose numbers are uncertain, are shown with a selection of clear calls. The call rests on the fitted dose curve; in most records, active means well fitted inhibition curve with a large enough effect; inconclusive means small, poorly fitted or top-dose-only effect, or effect the other way; inactive means flat fitted curve, though single readings scatter. Potencies beside an inconclusive call are fits to weak or partial responses and may not hold up.
Test: qHTS screen for small molecules that inhibit ELG1-dependent DNA repair in human embryonic kidney (HEK293T) cells expressing luciferase-tagged ELG1; further: nearly all actives have a fitted effect of over 55% in size
Conditions: HEK293T ELG1-luciferase reporter, luminescence, 16 h, DNA damage induced by 5-fluorouridine; series mostly up to 46.1 µM
Procedure, shortened: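 Cells (2,000 per well) received 5-fluorouridine plus test compound or DMSO and were incubated 16 hr at 37 °C, 5% CO2. Luciferase activity was read by luminescence 30 min after ONE-Glo addition; signal suppression marked inhibition of damage-induced ELG1 function.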
In the case of `CCC(C)NC(=O)c1ccc(C)c(NC(=O)C2=C(C)OCCS2)c1` (configuration not stated), the Potency was inconclusive: 29.1 µM [inhibitor, single point].
With `COc1ccc(OCc2cc(C(=O)N(C)Cc3cnccn3)no2)c(Cl)c1` the Potency was inconclusive: 20.6 µM [activator, single point].
With `CC1CCCN(C(=S)Nc2ccc(Nc3ccccc3)cc2)C1` (configuration not stated) the Potency was inconclusive: 23.1 µM [activator, single point].
For `O=c1[nH]c2cc3c(cc2cc1CN(CC1CCCO1)S(=O)(=O)c1ccc(Cl)cc1)OCCO3` (configuration not stated), the Potency was inconclusive: 29.1 µM [inhibitor, single point].
With `Cc1ccc(C)c(OCC(=O)O/N=C(\N)c2cccc([N+](=O)[O-])c2)c1` the Potency was “inactive”.
For `Cc1ccc(N2CCN(S(=O)(=O)c3ccc4c(c3)n(C)c(=O)c(=O)n4C)CC2C)cc1` (configuration not stated), the Potency was “inactive”.
For `Nc1nc(Cn2nnc(-c3ccccc3Cl)n2)nc(N2CCOCC2)n1`, the Potency was inconclusive: 18.4 µM [inhibitor, single point].
For `Cc1ccc(F)cc1NC(=O)CCc1c(C)nn(-c2ccc(N3CCCCC3)nn2)c1C`, the Potency was “inactive”.
For `Cc1ccn2cc(-c3nonc3C)cc2c1`, the Potency was inconclusive: 16.4 µM [activator, partial curve].
For `CN(C)CCCN(C(=O)c1ccc(Cl)s1)c1nc2cc3c(cc2s1)OCO3`, the Potency was inconclusive: 29.1 µM [activator, partial curve, poor fit].
With `O=C(NC1CCCCC1)C(c1ccc(F)cc1)N(Cc1ccco1)C(=O)c1csnn1` (configuration not stated) the Potency was “inactive”.
With `CCCCNc1c(-c2ccc(SC3CCCCC3)cc2)nc2ccccn12` the Potency was inconclusive: 4.61 µM [activator, partial curve].
With `Cc1[nH]c2ccccc2c1C(=O)CSc1ccc(Cl)cc1` the Potency was “inactive”.
For `N#Cc1cccnc1Nc1ccc(Cl)cc1`, the Potency was “inactive”.
With `COc1cccc2cc(C(C)N(CCCN3CCOCC3)C(=S)Nc3cccc(C)c3C)oc12` (configuration not stated) the Potency was “inactive”.
For `O=C(C1CCCC1)N1CCN=C1SCc1cccc([N+](=O)[O-])c1`, the Potency was “inactive”.
For `CN(C)/C=C/C(=O)c1ccc2noc(-c3ccc(F)cc3)c2c1`, the Potency was active: 8.2 µM.
With `Cc1nc(SCc2nc3c(C)cccc3[nH]2)c2oc3ccccc3c2n1` the Potency was inconclusive: 25.9 µM [inhibitor, single point].
For `CNC(=S)NNC(=O)c1cc(C(C)(C)C)nn1Cc1ccc(F)cc1`, the Potency was “inactive”.
With `COc1cc(CNC2CCCC2)cc(Cl)c1OCc1ccc(F)cc1` the Potency was “inactive”.
In the case of `COc1ccc(C(=O)N/N=C/c2cccnc2)cc1`, the Potency was inconclusive: 20.6 µM [activator, single point].
In the case of `CCn1c(/C=C/c2ccc([N+](=O)[O-])o2)nc2ccccc2c1=O`, the Potency was active: 16.4 µM.
For `N=c1c(C(=O)NCC2CCCO2)cc2c(=O)n3ccccc3nc2n1C1CCCC1` (configuration not stated), the Potency was inconclusive: 6.51 µM [inhibitor, single point].
For `CCc1ccc(Oc2nnnn2-c2ccc(C(N)=O)cc2)cc1`, the Potency was “inactive”.
For `COc1ccc(S(=O)(=O)NC(CC(=O)NCCc2ccc(OC)c(OC)c2)C(C)C)cc1` (configuration not stated), the Potency was “inactive”.
With `CC(C)NC(=S)N/N=C/C1=CCC2CC1C2(C)C` (configuration not stated) the Potency was “inactive”.
With `O=C(NC1CC1)c1cc2cc3ccccc3nc2s1` the Potency was inconclusive: 9.2 µM [activator, partial curve].
With `CC(=O)NC(=S)Nc1ccc2oc(=O)ccc2c1` the Potency was inconclusive: 29.1 µM [activator, single point].
With `CC[C@]12c3[nH]c4ccc(OC)cc4c3CCN1C(=O)C(CC(=O)NC(C)(C)C)C[C@@H]2C(=O)N1CCN(C(=O)c2ccco2)CC1` (some centres not stated) the Potency was “inactive”.
In the case of `COc1ccc(C(=O)N(CCc2ccccc2)Cc2ccccc2)c(OC)n1`, the Potency was inconclusive: 20.6 µM [inhibitor, partial curve, poor fit].
With `O=C(N/N=C/c1cn(Cc2ccccc2)c2ccccc12)c1ccncc1` the Potency was active: 18.3 µM.
In the case of `CC(C)OC(=O)/C(C#N)=C/c1c[nH]c2ccccc12`, the Potency was inconclusive: 29.1 µM [activator, single point].
With `CCCC1=C(C(=O)OCC)C(c2cc(Cl)cc(OC)c2OCC(=O)OCC)NC(=O)N1` (configuration not stated) the Potency was inconclusive: 23.1 µM [inhibitor, single point].
In the case of `CCNc1c(NC(=O)COc2ccc(Cl)cc2)c(=O)oc2ccccc12`, the Potency was “inactive”.
For `Cc1ccc(C)c(N2CCN(C(=O)c3ccc(CSc4nc5ccncc5[nH]4)cc3)CC2)c1`, the Potency was inconclusive: 20.6 µM [inhibitor, single point].
In the case of `COc1ccc(Cl)cc1NC(=O)COC(=O)c1ccc(Cl)nc1`, the Potency was “inactive”.
In the case of `COc1ccc(/C=C2\CN(Cc3ccccc3)C/C(=C\c3ccc(OC)c(O)c3)C2=O)cc1O`, the Potency was inconclusive: 20.6 µM [inhibitor, partial curve, poor fit].
In the case of `COc1ccc(NS(=O)(=O)c2cn(C)cn2)cc1Cl`, the Potency was inconclusive: 16.4 µM [activator, partial curve].
In the case of `CCCn1c(N)c(C(=O)CSc2nnc(C)n2Cc2ccccc2)c(=O)n(C)c1=O`, the Potency was inconclusive: 18.4 µM [inhibitor, partial curve].
In the case of `CN(C)c1nc(OCCNC(=O)Nc2ccccc2)nc(N2CCCCC2)n1`, the Potency was inconclusive: 20.6 µM [inhibitor, partial curve, poor fit].
For `Cn1c(CN2CCCC2)nc2cc(NC(=O)Nc3ccccc3)ccc21`, the Potency was inconclusive: 6.51 µM [activator, single point].
In the case of `O=C(OCC(=O)N1CCN(C(=O)c2ccco2)CC1)c1ccccc1OCc1ccccc1`, the Potency was “inactive”.
With `CS(=O)(=O)c1cccc(NC(=O)c2ccc(Cl)c(Cl)c2)c1` the Potency was “inactive”.
With `CC(=O)Nc1sc(C)c(C)c1C(=O)OCC(=O)NCc1ccc(F)cc1` the Potency was “inactive”.
For `O=C(Nc1ccc(NC(=S)NC(=O)c2ccco2)cc1)c1ccccc1`, the Potency was inconclusive: 6.51 µM [inhibitor, partial curve, poor fit].
For `COc1ccc(NC2CCCN(C(=O)CCN3Cc4ccccc4C3=O)C2)cc1` (configuration not stated), the Potency was inconclusive: 29.1 µM [activator, partial curve, poor fit].
For `COc1ccc(OCCNC(=O)c2ccc(C)cc2)cc1`, the Potency was inconclusive: 23.1 µM [activator, single point].

Reference: PubChem BioAssay AID504467 (National Center for Advancing Translational Sciences (NCATS), 2011)
Potency means the concentration at half of the fitted maximal effect.
